# Source: PubChem BioAssay AID1259300 (Sanger Institute, 2017)
# Aim: 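siRNA screen of kinases and common colorectal cancer mutant genes, alone or with drugs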 (primary screen)
# Cell system: HCT15 colorectal cancer cells
# Knock-down reagent: siRNA pool against human genes
# Treatment: anchor drug or DMSO vehicle added 24 h after seeding: BYL719 1 µM, cetuximab 5 µg/ml, trametinib 10 nM; drug doses chosen to barely affect viability alone
# Measurement: 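Replicate-mean viability relative to non-targeting pool control with robust z-score for knock-down without drug; per-drug synergy scores for BYL719 (1 µM), cetuximab (5 µg/ml), trametinib (10 nM)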
# Direction: viability z-score, siRNA alone: higher = more viable cells after knock-down; viability vs non-targeting, siRNA alone: higher = more viable cells; synergy score with BYL719 and synergy score with cetuximab and synergy score with trametinib: higher = stronger synergy of knock-down with drug
# Active means: 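Called active (essential) if viability z-score with knock-down alone falls below -3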
# Calls: active = essential: knock-down alone lowers viability (z below -3); inactive = no strong viability loss with knock-down alone
# Here is a random part of 794 reagents tested. 18 of them (2.3%) were called active. 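Calls rest on knock-down alone, not drug synergy; depositor treated synergy scores above 0.15 as synergistic; drug doses alone had little viability effect.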 No viability above 1 is reported: the scale is capped. Not given: the amount of reagent, the time to read-out.
target,"viability z-score, siRNA alone","viability vs non-targeting, siRNA alone",synergy score with BYL719,synergy score with cetuximab,synergy score with trametinib,Call
PRKAR2A,0.222,0.971,0.0408,0.0486,0.0656,inactive
MST1R,0.266,0.974,0.0964,-0.0261,-0.0733,inactive
MAPK13,0.625,1,0.0977,0.0806,-0.0105,inactive
MYLK,0.613,0.999,0.168,0.169,-0.0362,inactive
CSNK1A1,0.625,1,0.0376,0,-0.033,inactive
AURKA,-1.85,0.82,0.323,0.0516,0.151,inactive
ACVR1C,-0.362,0.928,0.00602,-0.00399,-0.0579,inactive
KSR1,-1.65,0.835,0.103,0.0564,-0.122,inactive
KCNH8,0.625,1,0.205,0.00566,0.0519,inactive
AKAP9,0.14,0.965,0.0926,-0.0353,-0.0754,inactive
CDADC1,-0.0512,0.951,0.152,-0.0492,-0.113,inactive
GCK,-0.0321,0.952,0.264,0.113,0.0921,inactive
CSK,0.625,1,0.173,0.0414,-0.0328,inactive
BRSK2,0.625,1,0.11,0.0219,-0.0145,inactive
PTPN11,-0.076,0.949,0.19,0.0532,0.0199,inactive
KDR,0.625,1,0.188,0.0757,-0.0534,inactive
DSTYK,0.625,1,0.1,0.0208,0.051,inactive
BCKDK,0.625,1,0.117,0.009,-0.0279,inactive
DCLK3,0.625,1,0.223,0.0562,0.256,inactive
TCF12,0.625,1,0.0791,0.00935,0.00516,inactive
EPHA7,0.625,1,0.0391,0.0576,0.007,inactive
CASP8,0.625,1,-0.0611,0.00722,-0.0984,inactive
DTYMK,0.625,1,0.15,0.0645,-0.0284,inactive
MAPK8,0.625,1,0.193,0.00266,-0.079,inactive
SCYL3,-0.389,0.926,0.213,-0.0544,-0.107,inactive
PANK4,-1.86,0.819,0.0666,-0.0295,-0.127,inactive
PI4K2B,-0.354,0.929,-0.00255,-0.0712,-0.129,inactive
GUK1,-3.24,0.719,-0.0953,-0.185,-0.236,active

4 of these entries, set out differently:
{"target":"KCNH8","viability z-score, siRNA alone":0.625,"viability vs non-targeting, siRNA alone":1,"synergy score with BYL719":0.205,"synergy score with cetuximab":0.00566,"synergy score with trametinib":0.0519,"Call":"inactive"}
{"target":"AKAP9","viability z-score, siRNA alone":0.14,"viability vs non-targeting, siRNA alone":0.965,"synergy score with BYL719":0.0926,"synergy score with cetuximab":-0.0353,"synergy score with trametinib":-0.0754,"Call":"inactive"}
{"target":"CDADC1","viability z-score, siRNA alone":-0.0512,"viability vs non-targeting, siRNA alone":0.951,"synergy score with BYL719":0.152,"synergy score with cetuximab":-0.0492,"synergy score with trametinib":-0.113,"Call":"inactive"}
{"target":"GCK","viability z-score, siRNA alone":-0.0321,"viability vs non-targeting, siRNA alone":0.952,"synergy score with BYL719":0.264,"synergy score with cetuximab":0.113,"synergy score with trametinib":0.0921,"Call":"inactive"}
